Experimental data as given in the supplement of paper PMC10735217.
Where a name gives a salt, the structure may show the parent alone. The list shows a part of the results. Single values are uncertain here, since repeats match poorly.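 Human kidney-derived cells stably carry a construct in which eight TEAD-binding elements drive luciferase, measured by luminescence in a drug-repurposing library screen. A hit is any compound whose signal exceeds the plate mean by more than five robust Z scores.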

Tested on: HEK293A TEAD-LUC reporter
Experiment: TEAD-luciferase reporter activity (YAP activation), robust Z score vs plate; higher = stronger YAP/TEAD activation
Conditions: 24 h

| SMILES | TEAD-luciferase reporter activity (compound concentration: 200 nM) | TEAD-luciferase reporter activity (compound concentration: 2 uM) | TEAD-luciferase reporter activity (compound concentration: 10 uM) |
| --- | --- | --- | --- |
| CC(C)N/C(=N/C#N)Nc1cccnc1 | inactive: -1.51 | inactive: -1.14 | inactive: -0.803 |
| Cc1nc(N2CCN(C)CC2)c2nc(-c3ccccc3Cl)n(C3CCOCC3)c2n1 | inactive: 0.352 | inactive: -0.461 | inactive: -0.525 |
| CCN(CC)CC(C)(C)COC(=O)c1ccc(-c2ccc(C(F)(F)F)cc2)o1 | inactive: -1.39 | inactive: -0.531 | active: 6.29 |
| Fc1ccc(-c2cncc(CN3CCN(c4cccc5c4OCCO5)CC3)c2)cc1 [Adoprazine hydrochloride] | inactive: -1.64 | inactive: -0.915 | inactive: -1.13 |
| CCCCNc1nc(C)c(C(=O)c2ccc3nc(NC(=O)OC)[nH]c3c2)s1 | inactive: -0.567 | inactive: 4.19 | inactive: 4.54 |
| CC1(C)CCC(C)(C)c2cc(Cn3cccn3)c(/C=C/c3ccc(C(=O)O)cc3)cc21 [palovarotene] | inactive: -0.888 | inactive: -0.0217 | inactive: 0.0463 |
| CCCCCNCCOC(=O)c1ccc(N)cc1 | inactive: 0.185 | inactive: -2.17 | inactive: 0.781 |
| CCCCN(Cc1ccc(-c2ccccc2-c2nnn[nH]2)cc1)c1ncncc1C(=O)O | inactive: -0.484 | inactive: -0.549 | inactive: -1.09 |
| CNC(=O)c1ccccc1Sc1ccc2c(/C=C/c3ccccn3)n[nH]c2c1 [Axitinib] | active: 5.21 | – | inactive: 3.62 |
| CNC(=O)c1ccccc1Sc1ccc2c(/C=C/c3ccccn3)n[nH]c2c1 [axitinib (topical)] | – | inactive: -0.65 | – |
| CC1(C)S[C@@H]2[C@H](NC(=O)C(NC(=O)c3c[nH]c4nc(N5CCN(C=O)CC5)ncc4c3=O)c3ccc(O)cc3)C(=O)N2[C@H]1C(=O)O (some centres undefined) | inactive: -0.13 | inactive: 1.21 | inactive: 1.23 |
| COc1nc(N)c2ncn(C3CCCC3)c2n1 | inactive: -1.7 | inactive: -0.174 | inactive: 2.2 |
| CC(C)N(CCC(CCN1CCCCC1)(C(N)=O)c1ccccc1Cl)C(C)C (centres undefined) [disobutamide] | inactive: -0.446 | inactive: 1.96 | inactive: -0.976 |
| COC(=O)CCNC(=O)C1CSC(C)N1 (centres undefined) | inactive: 0.432 | inactive: -1.1 | inactive: -0.0126 |
| NC(CO)(CO)CCc1ccc(Sc2cccc(OCc3ccccc3)c2)cc1Cl | inactive: 3.3 | inactive: -1.27 | inactive: 1.65 |
| CC(C)=CCC/C(C)=C/CC/C(C)=C/CCC(=O)OC/C=C(\C)CCC=C(C)C | inactive: -0.739 | inactive: 0.231 | inactive: 2.28 |
| CNCc1ccc(-c2[nH]c3cc(F)cc4c3c2CCNC4=O)cc1 [rucaparib] | inactive: 0.641 | inactive: 0.443 | inactive: 1.5 |
| Cc1c(-c2ccccc2)oc2c(C(=O)OC(C)(C)CN3CCCCC3)cccc2c1=O | inactive: -0.222 | inactive: 0.417 | inactive: 0.343 |
| Nc1nc(NC2CC2)c2ncn([C@H]3C=C[C@@H](COC(=O)CO)C3)c2n1 [Abacavir acetate] | inactive: 1.61 | inactive: 0.221 | inactive: -0.218 |
| COc1ccc2cc1Oc1cc3c(cc1OC)CC[N+](C)(C)[C@H]3Cc1ccc(cc1)Oc1c(OC)c(OC)cc3c1[C@@H](C2)[N+](C)(C)CC3 [Chondocurarine, derivative of] | inactive: -2.33 | inactive: -1.41 | inactive: 2.58 |
| C[C@@H]1C[C@H]2[C@@H]3CCC4=CC(=O)C=C[C@]4(C)[C@@]3(F)[C@@H](O)C[C@]2(C)[C@@]1(O)C(=O)CO [Dexamethasone50-02-2] | inactive: -0.391 | – | inactive: 0.907 |
| C[C@@H]1C[C@H]2[C@@H]3CCC4=CC(=O)C=C[C@]4(C)[C@@]3(F)[C@@H](O)C[C@]2(C)[C@@]1(O)C(=O)CO | – | inactive: -1.58 | – |
| Cc1c(OC(C)c2ccc(CC(C)C)cc2)ccc(C(=O)Nc2ccccc2OCCCC(=O)O)c1C (centres undefined) | inactive: -1.33 | inactive: -0.268 | inactive: -0.738 |
| O=[N+]([O-])c1c(Cl)cccc1-c1c[nH]cc1Cl | inactive: 0.634 | inactive: -0.768 | inactive: 0.759 |
| Cn1ncc(NCCN2CCC(c3noc4cc(F)ccc34)CC2)c(Cl)c1=O | inactive: -0.099 | inactive: -1 | inactive: -1.03 |
| Cn1c(=O)oc2cc(-n3cc(C(=O)O)c(=O)n([C@@H]4CCc5c4cccc5C(F)(F)F)c3=O)ccc21 | inactive: 3.02 | – | inactive: -0.0362 |
| CN1CC[C@@H](NC(=O)Nc2ccc(C#N)cc2)C[C@@H]1c1nc2ccccc2[nH]1 [glasdegib] | active: 5.54 | inactive: 1.84 | inactive: -1.09 |

Looked up above.
In TEAD-luciferase reporter activity (compound concentration: 10 uM), CC(C)N/C(=N/C#N)Nc1cccnc1 shows inactive: -0.803
In TEAD-luciferase reporter activity (compound concentration: 10 uM), Cc1nc(N2CCN(C)CC2)c2nc(-c3ccccc3Cl)n(C3CCOCC3)c2n1 shows inactive: -0.525
